PMC7782785, “Outer-membrane-acting peptides and lipid II-targeting antibiotics cooperatively kill Gram-negative pathogens” (Communications Biology, 2021)
Converted amounts (≈) assume the structure as drawn.

What was measured:
Format in all cases: cell-based
[1] = system: S. pneumoniae R6; assay: MIC, broth microdilution; conditions: Streptococcus pneumoniae; S. pneumoniae R6 (Gram-positive); compound alone; CAMHB plus 5% lysed horse blood
Protocol: (§1) MIC tests were performed in triplicate by liquid growth inhibition microdilution assays in sterile polypropylene microtiter plates according to the Clinical and Laboratory Standards Institute (CLSI) guideline for bacteria that grow aerobically. Briefly, the indicator strains were first streaked on the appropriate agar plate, and then single colonies were picked and incubated overnight in liquid broth. The final inoculum of bacteria was 5*10^5 CFU/mL prepared in CAMHB (cationic adjusted Mueller–Hinton broth, Sigma-Aldrich) or CAMHB plus 5% of lysed horse blood (TCS Biosciences, Buckingham, UK) in the case of S. pneumoniae. The antimicrobials were 2-fold serially diluted and 50 µL diluted bacterial suspension was added to each well to make the final volume 100 µL. The microtiter plates and the count plates were incubated at 37 °C for 16–20 h without shaking. Growth inhibition was assessed by measuring the OD600 using a microplate reader (Tecan Infinity F200). The lowest concentration of the antimicrobials that inhibits visible growth of the indicator strain is identified as the MIC value.

[2] = system: E. faecium LMG16003; assay: microbe, parasite or virus in culture; conditions: Enterococcus faecium
Protocol: as §1

[3] = system: E. faecalis V583; assay: microbe, parasite or virus in culture; conditions: Enterococcus faecalis
Protocol: as §1

[4] = system: S. aureus LMG8224; assay: microbe, parasite or virus in culture; conditions: Staphylococcus aureus
Protocol: as §1

SMILES: CN[C@H](CC(C)C)C(=O)N[C@H]1C(=O)N[C@@H](CC(N)=O)C(=O)N[C@H]2C(=O)N[C@H]3C(=O)N[C@H](C(=O)N[C@H](C(=O)O)c4cc(O)cc(O)c4-c4cc3ccc4O)[C@H](O)c3ccc(c(Cl)c3)Oc3cc2cc(c3O[C@@H]2O[C@H](CO)[C@@H](O)[C@H](O)[C@H]2O[C@H]2C[C@](C)(N)[C@H](O)[C@H](C)O2)Oc2ccc(cc2Cl)[C@H]1O [Vancomycin]
- MIC [1]: 0.34 µM
- MIC [2]: > 85 µM
- MIC [3]: 4.13 µM (≈ 5.99 µg/mL)
- MIC [4]: 1.37 µM (≈ 1.99 µg/mL)
